From paper PMC6717287
No constants are given. Whether binding was seen depends on the method and setting. In cells and extracts the contact can be indirect. Here binding means that the protein was enriched with, or labelled near, the bait; the list need not be complete. Sequences can lack the tags named with a protein. Each block holds one molecule with its values, some of them ahead of it.

By UniProt entry, the sequences of proteins in these tests, tags left out. Where a name states a change or a piece, a line headed by the entry shows the natural chain unless it says otherwise.
UniProt F4IDY5: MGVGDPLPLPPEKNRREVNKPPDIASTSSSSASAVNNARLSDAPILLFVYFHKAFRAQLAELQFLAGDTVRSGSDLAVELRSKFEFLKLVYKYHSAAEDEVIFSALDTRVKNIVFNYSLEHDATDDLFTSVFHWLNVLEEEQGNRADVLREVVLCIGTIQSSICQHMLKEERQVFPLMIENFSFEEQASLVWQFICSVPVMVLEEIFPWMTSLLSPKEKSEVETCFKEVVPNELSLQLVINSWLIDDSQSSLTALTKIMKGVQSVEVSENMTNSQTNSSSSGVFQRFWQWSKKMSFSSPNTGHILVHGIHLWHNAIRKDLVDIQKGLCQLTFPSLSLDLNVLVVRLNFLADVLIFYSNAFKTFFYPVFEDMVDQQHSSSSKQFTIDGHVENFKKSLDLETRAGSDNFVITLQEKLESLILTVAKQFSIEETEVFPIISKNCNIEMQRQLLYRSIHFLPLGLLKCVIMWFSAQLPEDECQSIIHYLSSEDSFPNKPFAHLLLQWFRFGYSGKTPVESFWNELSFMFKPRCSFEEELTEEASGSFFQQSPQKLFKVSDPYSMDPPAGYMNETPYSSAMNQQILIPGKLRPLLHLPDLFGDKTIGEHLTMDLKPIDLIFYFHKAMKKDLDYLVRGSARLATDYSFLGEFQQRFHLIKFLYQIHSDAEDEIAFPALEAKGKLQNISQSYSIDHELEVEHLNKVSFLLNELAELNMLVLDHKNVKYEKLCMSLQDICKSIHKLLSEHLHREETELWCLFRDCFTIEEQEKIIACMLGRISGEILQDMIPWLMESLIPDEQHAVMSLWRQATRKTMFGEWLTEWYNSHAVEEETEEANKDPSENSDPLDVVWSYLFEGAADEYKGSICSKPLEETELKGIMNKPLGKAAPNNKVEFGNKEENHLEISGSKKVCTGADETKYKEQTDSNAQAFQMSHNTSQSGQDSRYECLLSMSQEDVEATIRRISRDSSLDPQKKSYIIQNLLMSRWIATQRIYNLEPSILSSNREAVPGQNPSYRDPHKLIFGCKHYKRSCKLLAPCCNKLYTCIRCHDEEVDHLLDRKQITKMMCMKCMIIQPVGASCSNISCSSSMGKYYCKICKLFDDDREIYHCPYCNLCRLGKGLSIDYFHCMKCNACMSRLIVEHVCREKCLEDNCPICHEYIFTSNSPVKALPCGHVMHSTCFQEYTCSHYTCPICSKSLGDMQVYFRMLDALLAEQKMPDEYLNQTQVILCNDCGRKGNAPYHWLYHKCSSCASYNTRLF

Target: T1, Myc-FIT (FER-like iron deficiency-induced transcription factor), expressed from 35S:Myc-FIT in Arabidopsis (Arabidopsis thaliana) (UniProt Q0V7X4)
T1 sequence: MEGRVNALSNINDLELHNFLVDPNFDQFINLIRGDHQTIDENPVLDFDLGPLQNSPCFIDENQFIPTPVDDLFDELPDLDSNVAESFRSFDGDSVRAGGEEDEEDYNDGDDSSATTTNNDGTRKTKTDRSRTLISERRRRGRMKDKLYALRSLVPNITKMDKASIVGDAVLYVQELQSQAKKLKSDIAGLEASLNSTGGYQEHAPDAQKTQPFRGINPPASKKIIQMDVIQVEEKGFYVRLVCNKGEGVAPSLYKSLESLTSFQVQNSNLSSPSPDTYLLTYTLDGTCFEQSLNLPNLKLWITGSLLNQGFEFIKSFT
Experiment: affinity purification with mass spectrometry; root protein extract of plants expressing 35S:Myc-FIT, with the proteasomal inhibitor MG132; proteins bound to Myc affinity resin separated by SDS/PAGE and identified by LC-MS; control plants for comparison

- binding: binds
Molecule: BRUTUS-LIKE2 (BTSL2), endogenous (from UniProt F4IDY5)

- binding: binds
B1: bHLH39 (endogenous) (protein, UniProt Q9M1K0 1-258)
chain: MCALVPPLFPNFGWPSTGEYDSYYLAGDILNNGGFLDFPVPEETYGAVTAVTQHQNSFGVSVSSEGNEIDNNPVVVKKLNHNASERDRRRKINSLFSSLRSCLPASGQSKKLSIPATVSRSLKYIPELQEQVKKLIKKKEELLVQISGQRNTECYVKQPPKAVANYISTVSATRLGDNEVMVQISSSKIHNFSISNVLSGLEEDRFVLVDMSSSRSQGERLFYTLHLQVEKIENYKLNCEELSQRMLYLYEECGNSYI
